Data published in patent US9301917B2, “Sustained-release pharmaceutical composition” (Kyoto University, priority 2010, dated 2016).

B1: phosphorylase b: protein, MW 97 kDa, used as drug in sucrose/atelocollagen formulation (protein, UniProt P00489 2-843, looked up)
Glycogen phosphorylase, …: SRPLSDQEKRKQISVRGLAGVENVTELKKNFNRHLHFTLVKDRNVATPRDYYFALAHTVRDHLVGRWIRTQQHYYEKDPKRIYYLSLEFYMGRTLQNTMVNLALENACDEATYQLGLDMEELEEIEEDAGLGNGGLGRLAACFLDSMATLGLAAYGYGIRYEFGIFNQKICGGWQMEEADDWLRYGNPWEKARPEFTLPVHFYGRVEHTSQGAKWVDTQVVLAMPYDTPVPGYRNNVVNTMRLWSAKAPNDFNLKDFNVGGYIQAVLDRNLAENISRVLYPNDNFFEGKELRLKQEYFVVAATLQDIIRRFKSSKFGCRDPVRTNFDAFPDKVAIQLNDTHPSLAIPELMRVLVDLERLDWDKAWEVTVKTCAYTNHTVLPEALERWPVHLLETLLPRHLQIIYEINQRFLNRVAAAFPGDVDRLRRMSLVEEGAVKRINMAHLCIAGSHAVNGVARIHSEILKKTIFKDFYELEPHKFQNKTNGITPRRWLVLCNPGLAEIIAERIGEEYISDLDQLRKLLSYVDDEAFIRDVAKVKQENKLKFAAYLEREYKVHINPNSLFDVQVKRIHEYKRQLLNCLHVITLYNRIKKEPNKFVVPRTVMIGGKAAPGYHMAKMIIKLITAIGDVVNHDPVVGDRLRVIFLENYRVSLAEKVIPAADLSEQISTAGTEASGTGNMKFMLNGALTIGTMDGANVEMAEEAGEENFFIFGMRVEDVDRLDQRGYNAQEYYDRIPELRQIIEQLSSGFFSPKQPDLFKDIVNMLMHHDRFKVFADYEEYVKCQERVSALYKNPREWTRMVIRNIATSGKFSSDRTIAQYAREIWGVEPSRQRLPAPDEKIP

assay: Influence of molecular weight of drug on in vivo gelation of collagen (Example 4); conditions: formulation of protein 10 mg/mL, sucrose 0.25 M, atelocollagen 3% [w/v]; 100 μL dorsal subcutis of mice, 24 hours

In vivo gelation of the collagen, formed a gel:
thyrogloblin: high molecular weight protein (669 kDa) used as drug in sucrose/atelocollagen formulation
transferrin: protein, MW 76 kDa, used as drug in sucrose/atelocollagen formulation
B1
